# Reference: the supplement of paper PMC8728848
# Some of the results follow.
# How the values were obtained:
# Experiment in all cases: glycan array binding signal (z-score within array); higher = stronger binding
# Settings in all cases: glycan notation: IUPAC condensed, linker removed
# Fuc(a1-2)Gal = molecular target: Fuc(a1-2)Gal
# Procedure, shortened: (§1)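 The binding signal is a Z-score computed within each array and averaged over linkers. Arrays of the same protein sequence at different concentrations or buffers were also averaged together. Data originate from 3228 arrays in the Consortium for Functional Glycomics database, kept only where the protein sequence was available.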
# Fuc(a1-2)Gal(b1-3)GalNAc = molecular target: Fuc(a1-2)Gal(b1-3)GalNAc
# Procedure, shortened: as §1
# [1] = molecular target: Fuc(a1-2)Gal(b1-3)GalNAc(a1-3)[Fuc(a1-2)]Gal(b1-4)Glc
# Procedure, shortened: as §1
# [2] = molecular target: Fuc(a1-2)Gal(b1-3)GalNAc(a1-3)[Fuc(a1-2)]Gal(b1-4)GlcNAc
# Procedure, shortened: as §1
# [3] = molecular target: Fuc(a1-2)Gal(b1-3)GalNAc(b1-3)Gal
# Procedure, shortened: as §1
# [4] = molecular target: Fuc(a1-2)Gal(b1-3)GalNAc(b1-3)Gal(a1-4)Gal(b1-4)Glc
# Procedure, shortened: as §1
# [5] = molecular target: Fuc(a1-2)Gal(b1-3)GalNAc(b1-4)[Neu5Ac(a2-3)]Gal(b1-4)Glc
# Procedure, shortened: as §1
# Fuc(a1-2)Gal(b1-3)GlcNAc = molecular target: Fuc(a1-2)Gal(b1-3)GlcNAc
# Procedure, shortened: as §1
# [6] = molecular target: Fuc(a1-2)Gal(b1-3)GlcNAc(b1-2)Man(a1-3)[Fuc(a1-2)Gal(b1-3)GlcNAc(b1-2)Man(a1-6)]Man(b1-4)GlcNAc(b1-4)GlcNAc
# Procedure, shortened: as §1
# [7] = molecular target: Fuc(a1-2)Gal(b1-3)GlcNAc(b1-2)Man(a1-3)[Fuc(a1-2)Gal(b1-3)GlcNAc(b1-2)Man(a1-6)]Man(b1-4)GlcNAc(b1-4)[Fuc(a1-6)]GlcNAc
# Procedure, shortened: as §1
# [8] = molecular target: Fuc(a1-2)Gal(b1-3)GlcNAc(b1-3)Gal(b1-4)Glc
# Procedure, shortened: as §1
# [9] = molecular target: Fuc(a1-2)Gal(b1-3)GlcNAc(b1-3)GalNAc
# Procedure, shortened: as §1
# [10] = molecular target: Fuc(a1-2)Gal(b1-3)GlcNAc(b1-3)[Fuc(a1-2)Gal(b1-3)GlcNAc(b1-6)]GalNAc
# Procedure, shortened: as §1
# [11] = molecular target: Fuc(a1-2)Gal(b1-3)GlcNAc(b1-3)[Gal(b1-4)GlcNAc(b1-6)]Gal(b1-4)Glc
# Procedure, shortened: as §1
# [12] = molecular target: Fuc(a1-2)Gal(b1-3)GlcNAc(b1-3)[Neu5Ac(a2-6)Gal(b1-4)GlcNAc(b1-6)]Gal(b1-4)Glc
# Procedure, shortened: as §1
# [13] = molecular target: Fuc(a1-2)Gal(b1-3)GlcNAc6S
# Procedure, shortened: as §1
# [14] = molecular target: Fuc(a1-2)Gal(b1-3)[Fuc(a1-4)]GlcNAc
# Procedure, shortened: as §1
# [15] = molecular target: Fuc(a1-2)Gal(b1-3)[Fuc(a1-4)]GlcNAc(b1-2)Man(a1-3)[Fuc(a1-2)Gal(b1-3)[Fuc(a1-4)]GlcNAc(b1-2)Man(a1-3)]Man(b1-4)GlcNAc(b1-4)GlcNAc
# Procedure, shortened: as §1
# [16] = molecular target: Fuc(a1-2)Gal(b1-3)[Fuc(a1-4)]GlcNAc(b1-2)Man(a1-3)[Fuc(a1-2)Gal(b1-3)[Fuc(a1-4)]GlcNAc(b1-2)Man(a1-6)]Man(b1-4)GlcNAc(b1-4)[Fuc(a1-6)]GlcNAc(b1-4)[Fuc(a1-6)]GlcNAc
# Procedure, shortened: as §1
# [17] = molecular target: Fuc(a1-2)Gal(b1-3)[Fuc(a1-4)]GlcNAc(b1-3)[Fuc(a1-3)[Gal(b1-4)]GlcNAc(b1-6)]Gal(b1-4)Glc
# Procedure, shortened: as §1
# [18] = molecular target: Fuc(a1-2)Gal(b1-3)[Fuc(a1-4)]GlcNAc(b1-3)[Gal(b1-4)GlcNAc(b1-6)]Gal(b1-4)Glc
# Procedure, shortened: as §1
# Fuc(a1-2)Gal(b1-4)Glc = molecular target: Fuc(a1-2)Gal(b1-4)Glc
# Procedure, shortened: as §1
# Fuc(a1-2)Gal(b1-4)Glc6S = molecular target: Fuc(a1-2)Gal(b1-4)Glc6S
# Procedure, shortened: as §1
# Fuc(a1-2)Gal(b1-4)GlcNAc = molecular target: Fuc(a1-2)Gal(b1-4)GlcNAc
# Procedure, shortened: as §1
# [19] = molecular target: Fuc(a1-2)Gal(b1-4)GlcNAc(b1-2)Man
# Procedure, shortened: as §1
# [20] = molecular target: Fuc(a1-2)Gal(b1-4)GlcNAc(b1-2)Man(a1-3)[Fuc(a1-2)Gal(b1-4)GlcNAc(b1-2)Man(a1-6)]Man(b1-4)GlcNAc(b1-4)GlcNAc
# Procedure, shortened: as §1
# [21] = molecular target: Fuc(a1-2)Gal(b1-4)GlcNAc(b1-2)Man(a1-3)[Fuc(a1-2)Gal(b1-4)GlcNAc(b1-2)Man(a1-6)]Man(b1-4)GlcNAc(b1-4)[Fuc(a1-6)]GlcNAc
# Procedure, shortened: as §1
# [22] = molecular target: Fuc(a1-2)Gal(b1-4)GlcNAc(b1-2)[Fuc(a1-2)Gal(b1-4)GlcNAc(b1-4)]Man(a1-3)[Fuc(a1-2)Gal(b1-4)GlcNAc(b1-2)Man(a1-6)]Man(b1-4)GlcNAc(b1-4)GlcNAc
# Procedure, shortened: as §1
# [23] = molecular target: Fuc(a1-2)Gal(b1-4)GlcNAc(b1-3)Gal(b1-4)GlcNAc
# Procedure, shortened: as §1
# [24] = molecular target: Fuc(a1-2)Gal(b1-4)GlcNAc(b1-3)Gal(b1-4)GlcNAc(b1-2)Man(a1-3)[Fuc(a1-2)Gal(b1-4)GlcNAc(b1-3)Gal(b1-4)GlcNAc(b1-2)Man(a1-6)]Man(b1-4)GlcNAc(b1-4)GlcNAc
# Procedure, shortened: as §1
# [25] = molecular target: Fuc(a1-2)Gal(b1-4)GlcNAc(b1-3)Gal(b1-4)GlcNAc(b1-3)Gal(b1-4)GlcNAc
# Procedure, shortened: as §1
# [26] = molecular target: Fuc(a1-2)Gal(b1-4)GlcNAc(b1-3)GalNAc
# Procedure, shortened: as §1
# [27] = molecular target: Fuc(a1-2)Gal(b1-4)GlcNAc(b1-3)[Fuc(a1-2)Gal(b1-4)GlcNAc(b1-6)]GalNAc
# Procedure, shortened: as §1
# [28] = molecular target: Fuc(a1-2)Gal(b1-4)GlcNAc(b1-3)[Fuc(a1-3)[Gal(b1-4)]GlcNAc(b1-6)]Gal(b1-4)Glc
# Procedure, shortened: as §1
# [29] = molecular target: Fuc(a1-2)Gal(b1-4)GlcNAc(b1-6)GalNAc
# Procedure, shortened: as §1
# [30] = molecular target: Fuc(a1-2)Gal(b1-4)GlcNAc6S
# Procedure, shortened: as §1
# [31] = molecular target: Fuc(a1-2)Gal(b1-4)[Fuc(a1-3)]GlcNAc
# Procedure, shortened: as §1
binder,measurement,setting,value
Loc1 (Escherichia coli) (protein) APCALTNVGEQRGTYILKPLSMKGNLTAEKIENTGNIIECTDLQETTNAIKVHFLTQNALKFKVGSRHYIINFPFEYDGKKIELPGKSSYNLEEMLSAINFTIPYSIASVSDSSNTADIFPGTPFPLLFEIEVSSCTGNNTNCNSVRFNYNLNTILQVNLMTHHHHHH,glycan array binding signal (z-score),Fuc(a1-2)Gal,0.363
same,glycan array binding signal (z-score),Fuc(a1-2)Gal(b1-3)GalNAc,0.266
same,glycan array binding signal (z-score),[1],0.252
same,glycan array binding signal (z-score),[2],-0.027
same,glycan array binding signal (z-score),[3],-0.56
same,glycan array binding signal (z-score),[4],-0.719
same,glycan array binding signal (z-score),[5],-0.775
same,glycan array binding signal (z-score),Fuc(a1-2)Gal(b1-3)GlcNAc,0.551
same,glycan array binding signal (z-score),[6],-1.09
same,glycan array binding signal (z-score),[7],0.745
same,glycan array binding signal (z-score),[8],-0.688
same,glycan array binding signal (z-score),[9],-0.901
same,glycan array binding signal (z-score),[10],-0.061
same,glycan array binding signal (z-score),[11],-0.082
same,glycan array binding signal (z-score),[12],-0.102
same,glycan array binding signal (z-score),[13],-0.233
same,glycan array binding signal (z-score),[14],-0.727
same,glycan array binding signal (z-score),[15],-0.3
same,glycan array binding signal (z-score),[16],-0.297
same,glycan array binding signal (z-score),[17],0.27
same,glycan array binding signal (z-score),[18],-0.244
same,glycan array binding signal (z-score),Fuc(a1-2)Gal(b1-4)Glc,-0.622
same,glycan array binding signal (z-score),Fuc(a1-2)Gal(b1-4)Glc6S,0.154
same,glycan array binding signal (z-score),Fuc(a1-2)Gal(b1-4)GlcNAc,-0.37
same,glycan array binding signal (z-score),[19],-0.607
same,glycan array binding signal (z-score),[20],-0.36
same,glycan array binding signal (z-score),[21],-0.261
same,glycan array binding signal (z-score),[22],-0.533
same,glycan array binding signal (z-score),[23],0.029
same,glycan array binding signal (z-score),[24],-0.378
same,glycan array binding signal (z-score),[25],-0.362
same,glycan array binding signal (z-score),[26],-0.732
same,glycan array binding signal (z-score),[27],-0.76
same,glycan array binding signal (z-score),[28],-0.522
same,glycan array binding signal (z-score),[29],-0.178
same,glycan array binding signal (z-score),[30],0.269
same,glycan array binding signal (z-score),[31],-0.55

# Not a retest: an excerpt of the list.
binder,measurement,setting,value
Loc1 (Escherichia coli) (protein) APCALTNVGEQRGTYILKPLSMKGNLTAEKIENTGNIIECTDLQETTNAIKVHFLTQNALKFKVGSRHYIINFPFEYDGKKIELPGKSSYNLEEMLSAINFTIPYSIASVSDSSNTADIFPGTPFPLLFEIEVSSCTGNNTNCNSVRFNYNLNTILQVNLMTHHHHHH,glycan array binding signal (z-score),[24],-0.378
same,glycan array binding signal (z-score),[25],-0.362
